4 molecules from doi:10.1101/2024.07.03.601496 can be followed below.

Test [1] addresses T1, Hth (for EMSA) (Drosophila) (UniProt O46339).
T1 sequence: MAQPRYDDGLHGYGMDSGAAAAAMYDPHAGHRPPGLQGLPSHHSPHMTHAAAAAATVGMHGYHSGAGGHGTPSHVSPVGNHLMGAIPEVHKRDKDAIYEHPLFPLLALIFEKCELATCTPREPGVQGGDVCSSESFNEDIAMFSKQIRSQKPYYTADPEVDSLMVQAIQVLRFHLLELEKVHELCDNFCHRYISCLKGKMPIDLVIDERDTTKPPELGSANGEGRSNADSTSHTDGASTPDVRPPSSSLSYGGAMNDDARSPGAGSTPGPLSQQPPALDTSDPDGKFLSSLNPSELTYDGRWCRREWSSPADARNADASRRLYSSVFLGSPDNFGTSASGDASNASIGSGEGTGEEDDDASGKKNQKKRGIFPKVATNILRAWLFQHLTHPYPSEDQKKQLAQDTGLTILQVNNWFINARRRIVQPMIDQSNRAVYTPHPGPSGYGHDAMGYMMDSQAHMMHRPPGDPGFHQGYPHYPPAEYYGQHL
Nature of the test: native gel or EMSA.

Test [2] deals with T2, Exd (for EMSA) (Drosophila) (UniProt P40427).
T2 sequence: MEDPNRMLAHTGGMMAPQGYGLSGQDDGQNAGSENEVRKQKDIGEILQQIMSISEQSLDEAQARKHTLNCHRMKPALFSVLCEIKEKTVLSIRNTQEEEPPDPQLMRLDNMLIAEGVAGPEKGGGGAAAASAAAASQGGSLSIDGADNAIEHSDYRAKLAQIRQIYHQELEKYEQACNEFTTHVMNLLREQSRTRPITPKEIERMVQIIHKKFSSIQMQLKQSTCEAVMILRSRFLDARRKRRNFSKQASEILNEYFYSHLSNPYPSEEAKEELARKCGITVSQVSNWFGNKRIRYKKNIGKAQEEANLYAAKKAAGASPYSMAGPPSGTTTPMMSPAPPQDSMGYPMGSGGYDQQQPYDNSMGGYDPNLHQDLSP
Nature of the test: native gel or EMSA.

For test [3], the target named is T1, Hth (for EMSA) (Drosophila). Nature of the test: native gel or EMSA. This is another data set of the same source.
The target of test [4] is T2, Exd (for EMSA) (Drosophila). Nature of the test: native gel or EMSA. The source holds these as a separate data set.
In test [5] the target is T3, VN::Exd (Exd fused to the N-terminal part of Venus) (Drosophila) (UniProt P40427).
T3 sequence: T2 sequence
Nature of the test: split reporter.

Test [6] addresses T4, Flag::Hth (Homothorax) (Drosophila) (UniProt O46339).
T4 sequence: T1 sequence
Nature of the test: co-IP.

For test [7], the target named is T4, Flag::Hth (Homothorax) (Drosophila). Nature of the test: co-IP. This is another data set of the same source.
Test [8] deals with T5, His::Exd (Extradenticle) (Drosophila) (UniProt P40427).
T5 sequence: T2 sequence
Nature of the test: co-IP.

Where two headings read alike, the source gives them in different places. No constants are given. Whether binding was seen depends on the method and setting. For part of these data: In cells and extracts the contact can be indirect. Some entries that bind do so weakly or less than the wild type. For part of these data: Tags and fused reporters may be left off the sequences shown.

In the case of “Abd-B (wild type, for EMSA) (from UniProt P09087 1-493)”, the binding entry in test [1], in test [2], in test [3] and in test [4] was “binds” each time.

Turning to “Abd-B::VC (Abd-B fused to the C-terminal part of Venus) (from UniProt P09087 1-493)”, the binding entry in test [5] was “binds”.

For “HA::Abd-B (Abdominal-B, wild type) (from UniProt P09087 1-493)”, the binding entry in test [6], in test [7] and in test [8] was “binds” each time.

B1: His::Exd (Extradenticle) (protein, UniProt P40427 1-376)
chain: T2 sequence
Consider B1, for which, in test [7], the binding result is on record as “binds”.
